Measurements reported in PubChem BioAssay AID1508587 (Peter MacCallum Cancer Centre, 2020)

- Assay: 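Follow-up of vemurafenib sensitisers scored by lactate made per cell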 (follow-up of hits)
- System: human WM266.4 melanoma cells with a BRAF V600 mutation
- Reagents: single siRNA against human genes, 25 nM
- Duration: 96 h
- Treatment: vemurafenib 300 nM (about IC25), given 48 h after transfection for 48 h
- Read-out: 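Per-cell lactate from absorbance divided by DAPI nucleus counts, compared with and without vemurafenib, relative to non-targeting siRNA, mean of 2 replicates; nuclear counts also give cell number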
- Scale: lactate per cell, drug vs no drug: higher = less drug-induced drop in lactate per cell; lactate per cell with vemurafenib: higher = more lactate per cell under drug
- Rule for the call: 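Enhancer call for any duplex whose drug versus no-drug per-cell lactate ratio is below 0.55 (2 SD beneath non-targeting average); genes confirmed when at least 2 of their 4 duplexes qualify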
Shown is a random part of about 1,600 deposited reagents. 623 of them (39%) count as active. 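Calls are for each duplex; lactate ratios contain extreme outliers.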 Reagents against one gene are numbered here. Further read-outs or replicates are left out here. Reagent sequences are not shown.

U2SURP #1
- lactate per cell, drug vs no drug: 0.52
- lactate per cell with vemurafenib: 1.08
- outcome: active

U2SURP #2
- lactate per cell, drug vs no drug: 0.56
- lactate per cell with vemurafenib: 2.7
- outcome: inactive

U2SURP #3
- lactate per cell, drug vs no drug: 0.82
- lactate per cell with vemurafenib: 1.02
- outcome: inactive

U2SURP #4
- lactate per cell, drug vs no drug: 0.7
- lactate per cell with vemurafenib: 1.19
- outcome: inactive

CORT #1
- lactate per cell, drug vs no drug: 0.45
- lactate per cell with vemurafenib: 1.96
- outcome: active

CORT #2
- lactate per cell, drug vs no drug: 0.44
- lactate per cell with vemurafenib: 0.54
- outcome: active

CORT #3
- lactate per cell, drug vs no drug: 0.91
- lactate per cell with vemurafenib: 0.86
- outcome: inactive

CORT #4
- lactate per cell, drug vs no drug: 0.86
- lactate per cell with vemurafenib: 1.57
- outcome: inactive

GPR19 #1
- lactate per cell, drug vs no drug: 0.45
- lactate per cell with vemurafenib: 1.43
- outcome: active

GPR19 #2
- lactate per cell, drug vs no drug: 0.64
- lactate per cell with vemurafenib: 1.75
- outcome: inactive

GPR19 #3
- lactate per cell, drug vs no drug: 0.76
- lactate per cell with vemurafenib: 1.62
- outcome: inactive

GPR19 #4
- lactate per cell, drug vs no drug: 0.62
- lactate per cell with vemurafenib: 2.54
- outcome: inactive

ANKRD13B #1
- lactate per cell, drug vs no drug: 0.55
- lactate per cell with vemurafenib: 1.06
- outcome: inactive

ANKRD13B #2
- lactate per cell, drug vs no drug: 0.68
- lactate per cell with vemurafenib: 2.34
- outcome: inactive

ANKRD13B #3
- lactate per cell, drug vs no drug: 0.84
- lactate per cell with vemurafenib: 1.78
- outcome: inactive

ANKRD13B #4
- lactate per cell, drug vs no drug: 0.65
- lactate per cell with vemurafenib: 0.98
- outcome: inactive

VASP #1
- lactate per cell, drug vs no drug: 0.5
- lactate per cell with vemurafenib: 0.62
- outcome: active

VASP #2
- lactate per cell, drug vs no drug: 0.34
- lactate per cell with vemurafenib: 1.23
- outcome: active

VASP #3
- lactate per cell, drug vs no drug: 0.62
- lactate per cell with vemurafenib: 1.42
- outcome: inactive

VASP #4
- lactate per cell, drug vs no drug: 0.9
- lactate per cell with vemurafenib: 1.52
- outcome: inactive

MARK1 #1
- lactate per cell, drug vs no drug: 0.64
- lactate per cell with vemurafenib: 0.9
- outcome: inactive

MARK1 #2
- lactate per cell, drug vs no drug: 0.55
- lactate per cell with vemurafenib: 0.92
- outcome: inactive

MARK1 #3
- lactate per cell, drug vs no drug: 0.56
- lactate per cell with vemurafenib: 0.7
- outcome: inactive

MARK1 #4
- lactate per cell, drug vs no drug: 0.7
- lactate per cell with vemurafenib: 1.34
- outcome: inactive

REL #1
- lactate per cell, drug vs no drug: 0.77
- lactate per cell with vemurafenib: 2.34
- outcome: inactive

REL #2
- lactate per cell, drug vs no drug: 0.68
- lactate per cell with vemurafenib: 1.65
- outcome: inactive

REL #3
- lactate per cell, drug vs no drug: 0.5
- lactate per cell with vemurafenib: 0.69
- outcome: active

REL #4
- lactate per cell, drug vs no drug: 0.54
- lactate per cell with vemurafenib: 1.7
- outcome: active

Reagents listed above with an active call:
U2SURP #1
- lactate per cell, drug vs no drug: 0.52
- lactate per cell with vemurafenib: 1.08
- outcome: active

CORT #1
- lactate per cell, drug vs no drug: 0.45
- lactate per cell with vemurafenib: 1.96
- outcome: active

CORT #2
- lactate per cell, drug vs no drug: 0.44
- lactate per cell with vemurafenib: 0.54
- outcome: active

GPR19 #1
- lactate per cell, drug vs no drug: 0.45
- lactate per cell with vemurafenib: 1.43
- outcome: active

VASP #1
- lactate per cell, drug vs no drug: 0.5
- lactate per cell with vemurafenib: 0.62
- outcome: active

VASP #2
- lactate per cell, drug vs no drug: 0.34
- lactate per cell with vemurafenib: 1.23
- outcome: active

REL #3
- lactate per cell, drug vs no drug: 0.5
- lactate per cell with vemurafenib: 0.69
- outcome: active

REL #4
- lactate per cell, drug vs no drug: 0.54
- lactate per cell with vemurafenib: 1.7
- outcome: active
